Here are results for two substances from article doi:10.1101/2020.03.04.976886.

Sequences of proteins named here, by UniProt entry; tags and fusion partners are left off. A change or cut given only in a name is not applied to a line headed by its entry.
UniProt Q9NFU0: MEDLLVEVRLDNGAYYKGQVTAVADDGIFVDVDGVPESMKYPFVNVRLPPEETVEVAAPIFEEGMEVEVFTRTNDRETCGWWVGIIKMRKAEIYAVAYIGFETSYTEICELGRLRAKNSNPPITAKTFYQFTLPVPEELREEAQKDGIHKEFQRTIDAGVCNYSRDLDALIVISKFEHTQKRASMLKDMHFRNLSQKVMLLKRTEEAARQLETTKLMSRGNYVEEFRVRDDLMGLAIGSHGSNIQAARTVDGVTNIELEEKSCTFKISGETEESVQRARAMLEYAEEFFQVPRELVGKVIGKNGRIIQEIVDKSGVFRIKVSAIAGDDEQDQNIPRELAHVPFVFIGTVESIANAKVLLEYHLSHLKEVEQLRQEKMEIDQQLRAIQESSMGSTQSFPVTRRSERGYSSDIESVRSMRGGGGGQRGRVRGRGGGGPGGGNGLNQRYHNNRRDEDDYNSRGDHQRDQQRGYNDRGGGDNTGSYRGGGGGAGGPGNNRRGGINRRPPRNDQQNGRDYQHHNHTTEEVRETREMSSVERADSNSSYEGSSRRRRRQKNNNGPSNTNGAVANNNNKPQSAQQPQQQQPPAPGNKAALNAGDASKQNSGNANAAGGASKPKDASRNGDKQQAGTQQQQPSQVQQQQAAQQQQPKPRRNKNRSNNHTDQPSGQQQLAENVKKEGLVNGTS

The target of test [1] is T1, Flag-Myc-tagged Ythdf (Drosophila) (UniProt Q9VBZ5).
T1 sequence: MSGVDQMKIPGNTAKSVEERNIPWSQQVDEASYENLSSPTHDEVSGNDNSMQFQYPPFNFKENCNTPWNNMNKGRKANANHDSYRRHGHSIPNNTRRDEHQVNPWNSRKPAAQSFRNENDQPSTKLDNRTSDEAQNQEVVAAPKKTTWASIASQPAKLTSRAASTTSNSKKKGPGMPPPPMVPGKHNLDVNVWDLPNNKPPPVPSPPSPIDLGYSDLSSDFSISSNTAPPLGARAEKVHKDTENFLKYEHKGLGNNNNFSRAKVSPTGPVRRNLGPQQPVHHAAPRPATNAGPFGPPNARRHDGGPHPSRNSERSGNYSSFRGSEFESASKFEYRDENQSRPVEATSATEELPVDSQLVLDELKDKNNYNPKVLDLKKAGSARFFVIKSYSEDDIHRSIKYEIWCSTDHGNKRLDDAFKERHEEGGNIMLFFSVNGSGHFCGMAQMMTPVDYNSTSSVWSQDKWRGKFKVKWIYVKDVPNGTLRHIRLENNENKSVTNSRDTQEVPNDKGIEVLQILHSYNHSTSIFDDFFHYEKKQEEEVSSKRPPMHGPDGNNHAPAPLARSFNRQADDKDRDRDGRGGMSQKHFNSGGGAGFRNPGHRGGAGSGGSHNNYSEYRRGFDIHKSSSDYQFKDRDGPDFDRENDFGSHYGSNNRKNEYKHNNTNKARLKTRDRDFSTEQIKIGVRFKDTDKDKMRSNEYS
Put plainly: co-IP.

Test [2] concerns the target T2, N-GST-tagged Ythdf (full length) (Drosophila) (UniProt Q9VBZ5).
T2 sequence: T1 sequence
The experiment in a line: pull-down.

Results are given in words; binding and its absence hold for the method and conditions named. For some assays here: Binding seen in cells or lysates may run through a third protein. Some results given as binding are weak or reduced against the parent protein; the word gives no strength. Sequences can lack the tags named with a protein.

In the case of “Myc-tagged Fmr1 (from UniProt Q9NFU0 1-684)”, the binding result in test [1] is on record as “binds”.
For the substance “N-His6-tagged Fmr1 (220-684) (from UniProt Q9NFU0 220-684) (domain or fragment)”, the binding result in test [2] is reported as “binds”.
